# Test results: PubChem BioAssay AID504467 (National Center for Advancing Translational Sciences (NCATS), 2011)
# Screen size: about 330,000 compounds; about 7,700 (2.3%) were called active. This list was built around the results that the source calls inconclusive (neither active nor inactive); the mix of calls is not that of the screen. The call rests on the fitted dose curve; in most records, active means well fitted inhibition curve with a large enough effect; inconclusive means small, poorly fitted or top-dose-only effect, or effect the other way; inactive means flat fitted curve, though single readings scatter. Potencies beside an inconclusive call are fits to weak or partial responses and may not hold up.
# Test: qHTS screen for small molecules that inhibit ELG1-dependent DNA repair in human embryonic kidney (HEK293T) cells expressing luciferase-tagged ELG1; further: nearly all actives have a fitted effect of over 55% in size
# Conditions: HEK293T ELG1-luciferase reporter, luminescence, 16 h, DNA damage induced by 5-fluorouridine; series mostly up to 46.1 µM
# Procedure, shortened: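 Cells (2,000 per well) received 5-fluorouridine plus test compound or DMSO and were incubated 16 hr at 37 °C, 5% CO2. Luciferase activity was read by luminescence 30 min after ONE-Glo addition; signal suppression marked inhibition of damage-induced ELG1 function.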
# Potency means the concentration at half of the fitted maximal effect.
row,Compound,Potency
1,C=CCOC1=CS(=O)(=O)N(Cc2ccc(Br)cc2)c2ccc(Br)cc21,inactive
2,Cc1ccc2c(c1)nnn2C1CCN(CC(=O)Nc2ccc3c(c2)OCCO3)CC1,"inconclusive: 18.4 µM [inhibitor, single point]"
3,O=C1OC(c2cccs2)=N/C1=C\c1ccc(-c2ccccc2Cl)o1,inactive
4,COc1ccc(Nc2nc(N3CCN(S(C)(=O)=O)CC3)nc3ccccc23)c(OC)c1,"inconclusive: 25.9 µM [inhibitor, single point]"
5,CN(CC(=O)Nc1ccccc1Br)C(=O)c1cccnc1Nc1cccc(C(F)(F)F)c1,"inconclusive: 16.4 µM [inhibitor, single point]"
6,CCOC(=O)c1ccccc1NC(=O)COC(=O)Cc1ccccc1F,inactive
7,O=C(NCc1ccccc1)Nc1cccn(Cc2ccccc2)c1=O,inactive
8,O=[N+]([O-])c1ccc(-c2ccc(/C=N/Nc3nc(N4CCCCC4)nc(N4CCCCC4)n3)o2)cc1,inactive
9,CCC(C(=O)Nc1cccnc1)c1ccccc1 (configuration not stated),inactive
10,O=C(Nc1nnc(-c2cccnc2)s1)c1cccs1,"inconclusive: 18.3 µM [activator, partial curve]"
11,C=C(C)c1cc2c(ccc3ccc(=O)oc32)o1,"inconclusive: 18.3 µM [activator, single point]"
12,Cn1c(=NC(=O)CS(=O)(=O)c2ccccc2)sc2cc([N+](=O)[O-])ccc21,inactive
13,COc1ccc(C)cc1NC(=O)C1CCCCN1S(=O)(=O)c1ccccc1 (configuration not stated),"inconclusive: 4.61 µM [inhibitor, single point]"
14,CCOC(=O)c1cnc(COc2ccc(OC)cc2)[nH]c1=O,inactive
15,Cc1ccc(-c2nc(Nc3cccc(C)c3)sc2CC(=O)O)cc1,"inconclusive: 23.1 µM [activator, single point]"
16,COc1ccc(NC(=O)CNC(=O)Cn2c(C)cc3ccccc3c2=O)cc1OC,active: 8.2 µM
17,O=C(NCCCn1ccnc1)c1cccc(Br)c1,inactive
18,CN(C)c1ccc(CNC(=O)CCS(=O)(=O)c2ccc3c(c2)oc(=O)n3C)cc1,inactive
19,N=c1oc2ccc(Br)cc2cc1C(=O)NCc1ccccc1,inactive
20,COc1cccc2c(=S)c(CCC(C)=O)c(C)[nH]c12,"inconclusive: 0.0041 µM [inhibitor, full curve, poor fit]"
21,O=C(NCCCc1ccccc1)N1CCOCC1,"inconclusive: 18.3 µM [activator, partial curve, poor fit]"
22,COCCOC(=O)C1=C(C)NC(=O)CC1c1cc2c(cc1Br)OCO2 (configuration not stated),"inconclusive: 20.6 µM [activator, partial curve, poor fit]"
23,C/C(=N\NC(=O)C1(C)CC1(Br)Br)c1cccc(NC(=O)C(C)(C)C)c1 (configuration not stated),"inconclusive: 20.6 µM [inhibitor, single point]"
24,Cc1ccc2nc(-c3cccc(N)c3)oc2c1,"inconclusive: 2.31 µM [activator, full curve]"

# In another format: 2 of the compounds above.
row | Compound | Potency
12 | Cn1c(=NC(=O)CS(=O)(=O)c2ccccc2)sc2cc([N+](=O)[O-])ccc21 | inactive
17 | O=C(NCCCn1ccnc1)c1cccc(Br)c1 | inactive

# (list continues)

row,Compound,Potency
1,COc1ccc(C(=O)OCC(=O)NCc2ccc3c(c2)OCO3)cc1S(=O)(=O)N1CCOCC1,inactive
2,CCC(=O)NCCc1nc2ccccc2n1CC(=O)c1ccccc1,"inconclusive: 29.1 µM [activator, single point]"
3,COc1cc(C(c2nnnn2C2CCCC2)N2CCc3ccccc3C2)ccc1O (configuration not stated),inactive
4,O=C(Cc1csc(Nc2nc(=S)[nH]c3ccccc23)n1)NCc1cccc(Cl)c1,inactive
5,O=C(COc1ccc(C(=O)c2ccccc2)cc1)NCC(=O)Nc1ccccc1Br,"inconclusive: 29.1 µM [inhibitor, single point]"
6,CCN(C(=O)COC(=O)c1cc(Cl)ccc1OC)c1c(N)n(Cc2ccccc2)c(=O)[nH]c1=O,inactive
7,COc1ccc(/C=C/C(=O)NC2CCCCCC2)cc1S(=O)(=O)N1CCOCC1,"inconclusive: 3.66 µM [activator, full curve]"
8,Cc1ccc(NC(=O)CN2CCC(C(N)=O)CC2)cc1[N+](=O)[O-],"inconclusive: 32.6 µM [activator, partial curve, poor fit]"
9,COc1ccccc1NS(=O)(=O)c1cc(NC(=O)Cc2n[nH]c(=O)c3ccccc23)ccc1Cl,active: 23.1 µM
10,COCCNCCCOc1ccc(C)cc1Br,inactive
11,O=C(Nc1nccs1)c1cnccn1,inactive
12,Cc1ccc(/C=C/C(=O)NC(=S)N2CCN(C)CC2)cc1,"inconclusive: 14.6 µM [activator, partial curve]"
13,COc1cccc(-c2nn3c(-c4cc(C)[nH]n4)nnc3s2)c1,"inconclusive: 29.1 µM [inhibitor, single point]"
14,O=C(NC(=S)Nc1ccccc1N1CCOCC1)c1ccc(-c2ccccc2F)o1,"inconclusive: 25.9 µM [inhibitor, partial curve]"
15,CC1(C)CC(NC(=O)c2ccc3c(c2)OCO3)CC(C)(C)N1,inactive
16,Cn1c(SCc2ccc(F)cc2)nnc1-c1ccccn1,"inconclusive: 10 µM [activator, partial curve]"
17,Cc1c(C(=O)NCc2ccco2)sc2nc(-c3ccccc3)cn12,"inconclusive: 29.1 µM [inhibitor, single point]"
18,CC(=O)Nc1ccc(N(C(=O)c2ccco2)C(C(=O)NC2CCCC2)c2cccs2)cc1 (configuration not stated),inactive
19,Cc1cccc(N2CCN(C(=O)C3COc4ccccc4O3)CC2)c1C (configuration not stated),"inconclusive: 29.1 µM [inhibitor, single point]"
20,CCn1cc(C(=O)NC2CCC(C)CC2)c(=O)c2cc(S(=O)(=O)N3CCCCC3)ccc21 (configuration not stated),"inconclusive: 9.2 µM [activator, partial curve]"
21,O=C(C(Cc1ccccc1)n1cccc1)N1CCN(Cc2ccccc2)CC1 (configuration not stated),"inconclusive: 0.517 µM [inhibitor, partial curve, poor fit]"
22,CCOC(=O)c1c(NC(=O)c2cccs2)sc2c1CCN(C(=O)OCC)C2,"inconclusive: 7.31 µM [inhibitor, partial curve]"
23,COc1ccc(NS(=O)(=O)c2cc(NC(=O)c3nc4nc(C)cc(C)n4n3)ccc2C)cc1,"inconclusive: 29.1 µM [inhibitor, single point]"
